{
  "source": "patent US20260248809A1",
  "about": "“ESTRADIOL PRODRUGS AND METHODS OF USE THEREOF” (UNIVERSITY OF MARYLAND, BALTIMORE, priority 2022, published 2026)",
  "type_in_all_cases": "in vivo, mouse",
  "key": {"[1]": {"assay": "Body, testis and seminal vesicle weights after hormonal treatments", "settings": "chronic treatment", "description": "For the chronic administration paradigms, silastic tubes (1.02 mm inner diameter×2.16 mm outer diameter) were filled with testosterone (10 mm) or 17β-Estradiol (E2; 1,3 and 10 mm; Sigma-Aldrich, St. Louis, MO, USA). Silastic implants were primed in 0.9% saline at 37° C. overnight prior to their subcutaneous use. Letrozole (1 mg/kg/day; Sigma-Aldrich, St. Louis, MO, USA) was dissolved in propylene glycol (MP Biomedicals, Santa Ana, CA, USA) and administered through ALZET minipumps (Model 1002, 0.25 μl/hour, 14 days; Cupertino, CA, USA). DHED (synthesized using previously described methods) was dissolved in 0.9% saline and administered through ALZET minipumps (Model 1002, 0.25 μl/hour, 14 days; Cupertino, CA, USA) at a dose of […]. Flutamide was administered through 1.5 mg slow-release subcutaneous pellets (Innovative Research of America, Sarasota, FL, USA). For acute administration, 17β-Estradiol (E2; 10 and […]) was dissolved in sesame oil (4 ml/kg, s.c.; Sigma-Aldrich, St. Louis, MO, USA).\nSubcutaneous implantations were performed during the same time as the orchiectomies. The surgical area was thoroughly cleaned with Betadine solution (10% povidone-iodine surgical scrub) followed by 70% ethanol. A small, approximately 1-cm incision was made between the scapulae using a pair of small sterile surgical scissors. Hemostats were then inserted and spread laterally to the incision to create a cavity in the subcutaneous space in which ALZET mini-osmotic pumps or silastic implants were inserted for continuous drug/vehicle delivery. The skin was closed with suturing."}, "[2]": {"system": "male mice", "assay": "Subthreshold social defeat stress followed by female urine sniffing test (anhedonia)", "settings": "chronic treatment; gonadally intact male mice + SSDS", "description": "(§1) Subthreshold social defeat stress: Retired CD1 breeders are singly housed and used as aggressors. Experimental mice are introduced to the home cage of an aggressor for 2 min to initiate the physical attack phase. Afterward, mice are transferred and housed on the opposite side of the aggressor, in the same cage separated by a perforated Plexiglass divider for 15 mins in order to maintain sensory contact. This process is repeated 3 times over a period of ~50 min.\n(§2) Female Urine Preference Test: is performed 24 hours after the social interaction test as using previously described methods. The amount of time mice spent interacting with a cotton-tipped applicator soaked in either fresh male or female mouse urine during a total of 3 minutes is analyzed by an experimenter blind to the experimental groups.\nFor the chronic administration paradigms, silastic tubes (1.02 mm inner diameter×2.16 mm outer diameter) were filled with testosterone (10 mm) or 17β-Estradiol (E2; 1,3 and 10 mm; Sigma-Aldrich, St. Louis, MO, USA). […]\nas §2, with “FUST procedure was” for “Female Urine Preference Test: is”, “and 48 hours after stress. […]” for “as using previously described methods.”, “was” for “is”"}, "[3]": {"system": "male mice", "assay": "Subthreshold social defeat stress (SSDS) followed by social interaction test", "settings": "chronic treatment; gonadally intact male mice + SSDS", "description": "as §1\nSocial Interaction: Mice are placed in a rectangular box (40 cm length×30 cm width×35 cm height; Stoelting, IL) divided into three compartments (two equal-sized end-chambers and a middle chamber) for five minute habituation phase (10-15 lux). After the habituation phase, two small wire cages are introduced into the two end chambers, one containing an unfamiliar, non-aggressive CD1 mouse and the other remaining empty. The amount of time mice spent sniffing each cage during the five-min test is assessed using CleverSys tracking software (CleverSys, Inc, Reston VA, USA). […]\nSocial interaction was performed 24 hours following subthreshold social defeat or inescapable foot-shock stress. […] The amount of time mice spent sniffing each cage during the five-min test was assessed using CleverSys tracking software (CleverSys, Inc, Reston VA, USA)."}},
  "note": "At least one structure is not confirmed: it was looked up by name or label, or the drawing left a doubt.",
  "data": [
    {"smiles": "CC(C)C(=O)Nc1ccc([N+](=O)[O-])c(C(F)(F)F)c1", "note": "[flutamide, Flutamide]", "values": [
      {"measurement": "body weight", "setting": "[1]", "result": "did not manifest any differences"},
      {"measurement": "seminal vesicle weight", "setting": "[1]", "result": "decrease in seminal vesicle weight"},
      {"measurement": "testis weight", "setting": "[1]", "result": "did not manifest any differences"},
      {"measurement": "anhedonia following stress", "setting": "[2]", "result": "nor anhedonia"},
      {"measurement": "social interaction deficits following stress", "setting": "[3]", "result": "induced neither social deficits"}
    ]}
  ]
}
